{"source": "the supplement of paper PMC10403144", "note": "This is one part of the list.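 The calls were made as follows: active = mitochondrial OCR inhibition above 30% at 1 uM; inactive = 30% or less.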 Many values rest on one well or one pass, so single values are uncertain.", "data": [{"test_system": "Toxoplasma gondii RH tachyzoites", "assay": "inhibition of mitochondrial O2 consumption rate (% inhibition (relative to pre-injection OCR and atovaquone/antimycin A control)); higher = stronger ETC inhibition", "settings": "1 µM; injection port (sequential injection order): C", "values": [{"smiles": "NC(=O)c1cc(-c2ccsc2)ccc1OCCOc1ccccc1", "inhibition of mitochondrial O2 consumption rate": "inactive: -25.9"}, {"smiles": "CCN(CC)S(=O)(=O)c1ccc(C(=O)Nc2cc(C)nn2-c2nc(C)c(C)c(=O)[nH]2)cc1", "inhibition of mitochondrial O2 consumption rate": "inactive: 1.66"}, {"smiles": "O=C(c1ccc(F)cc1)N(CCNc1ccccc1)c1ccccc1", "inhibition of mitochondrial O2 consumption rate": "inactive: -10.1"}, {"smiles": "O=C(NCc1cc(Cl)cc(Cl)c1)c1c(C(F)(F)F)nc2ccccn12", "inhibition of mitochondrial O2 consumption rate": "inactive: -17.1"}, {"smiles": "CC(=O)Nc1ccc(-c2noc(CC3CCCN(Cc4cccc(F)c4C)C3)n2)cc1", "note": "(configuration not stated)", "inhibition of mitochondrial O2 consumption rate": "inactive: -6.11"}, {"smiles": "Nc1ncnc2c1c(Cc1cccc3ccccc13)nn2CC1CCNCC1", "inhibition of mitochondrial O2 consumption rate": "inactive: -24.9"}, {"smiles": "CC(C)(C)C(=O)N(CCCCCCN1C[C@H](O)[C@@H](O)[C@H](O)[C@H]1CO)C1CCCCCC1", "inhibition of mitochondrial O2 consumption rate": "inactive: -7.2"}, {"smiles": "Cc1cc(OCC(=O)NCc2ccccc2)c2cc(Br)ccc2n1", "inhibition of mitochondrial O2 consumption rate": "inactive: 0.635"}, {"smiles": "CN1CCN(S(=O)(=O)c2ccc(-c3ccc4c(Nc5ncc(Cl)cn5)ccnc4c3)cc2)CC1", "inhibition of mitochondrial O2 consumption rate": "inactive: -18.3"}, {"smiles": "CC(=O)N1CCc2cc3nc(C)cc(C)c3cc21", "inhibition of mitochondrial O2 consumption rate": "inactive: 6.55"}, {"smiles": "Cc1ccccc1CN1CCC(O)(c2ccc(Cl)c(C(F)(F)F)c2)CC1", "inhibition of mitochondrial O2 consumption rate": "inactive: -25.7"}, {"smiles": "O=C1[C@@H](Oc2ccccc2)[C@@H](c2ccc(Cl)cc2)N1CCn1cnc2c(NCc3ccccc3)ncnc21", "inhibition of mitochondrial O2 consumption rate": "inactive: -9.29"}]}]}
